Assay results: patent publication US20240019450A1, “FLUORESCENT SENSORS” (THE UNIVERSITY OF SYDNEY, priority 2020, published 2024)
Some of these results come from one statement about several compounds together. Some ranges recur; such a range may be that of the whole group of compounds.

Assay: Fluorescence spectroscopy of the sensors (excitation and emission)
Type: physicochemical
Procedure: Fluorescence spectroscopy was performed on a bench top Perkin-Elmer Enspire Multimode Plate Reader. […] 5 replicates of each sensor-metal or sensor-complex solution were used. […] Fluorescence responses to analytes were determined using integrated emission intensity, and for each sensor a control well containing no analyte was included to normalise the response for analysis.
The sensors were tested using the procedure described in Example 4, and the obtained data was analysed using LDA. […] Sensors S1-S9 were used in subsequent experiments.

| SMILES | intense fluorescence in the visible range |
| --- | --- |
| CCN(CC)c1ccc2c(c1)Oc1cc(N(CC)CC)ccc1C21c2ccccc2C(=O)N1C(=N)SC [S3] | 400-600 nm |
| Cc1cc(=O)oc2c(CN(CC(=O)O)CC(=O)O)c(O)ccc12 [S5] | 400-600 nm |
| O=[N+]([O-])c1ccc2c(/N=N/c3ccc4ccccc4c3O)c(O)cc(S(=O)(=O)[O-])c2c1.[Na+] [S8] | 400-600 nm |
| CCN(CC)c1ccc2c(c1)Oc1cc(N(CC)CC)ccc1C21SC(=O)c2ccccc21 [S4] | 400-600 nm |
| CCN(CC)c1ccc2c(c1)Oc1cc(N(CC)CC)ccc1C21c2ccccc2C(=O)N1NC(=S)Nc1ccccc1 [S2] | 400-600 nm |
| CCN(CC)c1ccc2c(c1)Oc1cc(N(CC)CC)ccc1C21c2ccccc2C(=O)N1OCc1cn(Cc2ccccc2)nn1 [S7] | 400-600 nm |
| O=C1c2ccccc2C2(c3ccc(O)cc3Oc3cc(O)ccc32)N1NC(=S)S [S1] | 400-600 nm |
